Where a sequence shows no end group, the ends are not given.

Results on one sequence are retold here after US5750332A (priority 1995, dated 1998).

The data set can be described thus: Boc solid-phase peptide synthesis; PAM resin. The conditions noted are these: whole synthesis, scale 0.5 mmol.

Take KIKQIINMWQEVGKAMYA: the crude yield result is “approximately 95%”.
